Laboratory results: publication PMC9883464
These are yes or no findings as the source states them, for the method shown. Binding seen in cells or lysates may run through a third protein. Some results given as binding are weak or reduced against the parent protein; the word gives no strength.

By UniProt entry, the sequences of proteins in these tests, tags left out. Where a name states a change or a piece, a line headed by the entry shows the natural chain unless it says otherwise.
UniProt Q9GZV5: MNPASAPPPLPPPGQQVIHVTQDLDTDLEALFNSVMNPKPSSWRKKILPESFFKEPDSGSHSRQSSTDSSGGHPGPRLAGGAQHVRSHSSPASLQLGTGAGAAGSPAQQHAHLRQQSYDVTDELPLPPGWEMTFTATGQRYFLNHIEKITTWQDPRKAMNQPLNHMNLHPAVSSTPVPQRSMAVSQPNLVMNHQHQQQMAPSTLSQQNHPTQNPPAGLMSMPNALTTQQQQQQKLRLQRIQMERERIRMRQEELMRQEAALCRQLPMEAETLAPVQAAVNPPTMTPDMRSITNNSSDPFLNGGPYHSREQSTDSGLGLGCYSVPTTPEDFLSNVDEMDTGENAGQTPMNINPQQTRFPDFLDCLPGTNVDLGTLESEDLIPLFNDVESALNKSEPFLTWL
UniProt P54578: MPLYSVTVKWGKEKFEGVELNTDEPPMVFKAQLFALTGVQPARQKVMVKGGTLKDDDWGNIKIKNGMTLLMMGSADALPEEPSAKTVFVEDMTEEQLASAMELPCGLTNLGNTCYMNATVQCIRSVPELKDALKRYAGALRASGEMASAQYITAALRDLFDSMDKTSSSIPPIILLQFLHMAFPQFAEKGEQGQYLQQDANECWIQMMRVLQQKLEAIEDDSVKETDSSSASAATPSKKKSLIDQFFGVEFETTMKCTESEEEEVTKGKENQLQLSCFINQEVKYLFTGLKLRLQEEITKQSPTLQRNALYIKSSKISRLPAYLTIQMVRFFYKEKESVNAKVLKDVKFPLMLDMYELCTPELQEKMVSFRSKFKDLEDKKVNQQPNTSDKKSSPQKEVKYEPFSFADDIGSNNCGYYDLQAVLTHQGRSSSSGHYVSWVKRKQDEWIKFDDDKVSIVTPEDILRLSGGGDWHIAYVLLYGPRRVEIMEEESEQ

How the values were obtained:
[1] = target: TAZ-Flag (full length) (human) (UniProt Q9GZV5); experiment: co-IP; HEK293T cells transfected with full-length or truncated TAZ and USP14 plasmids; IP buffer 20 mM Tris-HCl pH 7.4, 150 mM NaCl, 1 mM EDTA, 1% NP-40; overnight at 4 °C
[2] = target: GST-USP14 (human) (UniProt P54578); experiment: pull-down; GST, GST-TAZ or GST-USP14 from E. coli BL21 on glutathione agarose, incubated with cell lysate at 4 °C for 4 h; RIPA lysis buffer (50 mM Tris pH 7.4, 150 mM NaCl, 0.5% NP40, 1 mM EDTA); western blot; only the target purified

| Substance | binding [1] | binding [2] |
| --- | --- | --- |
| USP14 U2 (aa 105-494) (from UniProt P54578 105-494) (domain or fragment) | binds | – |
| TAZ (in the cell lysate of the GST pull-down) (from UniProt Q9GZV5 1-400) | – | binds |
